PubChem BioAssay AID743121 | NCATS, 2013
Test: 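Knock-downs that sensitise breast cancer cells to camptothecin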 (primary screen). Cell system: MDA-MB-231 cells, a human breast cancer line. Reagent: single siRNA against human genes, 20 nM siRNA (0.8 pmol per well). Duration: 120 h (drug added 48 h after transfection, read 72 h later). Treatment: camptothecin 20 nM (about EC30) for 72 h; vehicle 0.1% DMSO in parallel plates. Measured: 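Cell viability by ATP luminescence (CellTiter-Glo) as % of non-targeting siRNA wells, and the log2 ratio of viability without drug over viability with camptothecin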. Reading the numbers: log2 vehicle/camptothecin viability: higher = stronger sensitisation to camptothecin; viability with camptothecin: higher = more viable cells. Units: viability with camptothecin in % of control. Hit rule: 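Each gene scored by redundant siRNA activity (RSA) over its individual siRNA ratios; a gene is called active at p < 0.001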.
This is a random part of about 26,000 reagents tested. Of all reagents, 167 (0.63%) were called active. 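Calls are per gene from RSA p-values that are not deposited; an individual active-marked siRNA can sensitise only weakly.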 Entries without a mark were called inactive. Reagents against one gene are numbered here. Further read-outs or replicates are left out here.

MAP1A #1
- log2 vehicle/camptothecin viability: -0.659
- viability with camptothecin: 61.2

MAP1A #2
- log2 vehicle/camptothecin viability: -0.49
- viability with camptothecin: 123

MAP1A #3
- log2 vehicle/camptothecin viability: -0.262
- viability with camptothecin: 72.3

IL1RAPL1 #1
- log2 vehicle/camptothecin viability: -0.312
- viability with camptothecin: 61.5

IL1RAPL1 #2
- log2 vehicle/camptothecin viability: 0.0748
- viability with camptothecin: 105

IL1RAPL1 #3
- log2 vehicle/camptothecin viability: -0.0078
- viability with camptothecin: 55.4

IL1RAPL1 #4
- log2 vehicle/camptothecin viability: -0.0616
- viability with camptothecin: 70.5

F13B #1
- log2 vehicle/camptothecin viability: -0.248
- viability with camptothecin: 78.5

F13B #2
- log2 vehicle/camptothecin viability: 0.158
- viability with camptothecin: 75.7

F13B #3
- log2 vehicle/camptothecin viability: 0.182
- viability with camptothecin: 90.6

F13B #4
- log2 vehicle/camptothecin viability: -0.0375
- viability with camptothecin: 53.4

ANAPC7 #1
- log2 vehicle/camptothecin viability: -0.398
- viability with camptothecin: 75.8

ANAPC7 #2
- log2 vehicle/camptothecin viability: -0.13
- viability with camptothecin: 77.6

ANAPC7 #3
- log2 vehicle/camptothecin viability: -0.191
- viability with camptothecin: 99.3

ANAPC7 #4
- log2 vehicle/camptothecin viability: -0.167
- viability with camptothecin: 85.7

Next part, starting with the last 6 of the part before.
F13B #3
- log2 vehicle/camptothecin viability: 0.182
- viability with camptothecin: 90.6

F13B #4
- log2 vehicle/camptothecin viability: -0.0375
- viability with camptothecin: 53.4

ANAPC7 #1
- log2 vehicle/camptothecin viability: -0.398
- viability with camptothecin: 75.8

ANAPC7 #2
- log2 vehicle/camptothecin viability: -0.13
- viability with camptothecin: 77.6

ANAPC7 #3
- log2 vehicle/camptothecin viability: -0.191
- viability with camptothecin: 99.3

ANAPC7 #4
- log2 vehicle/camptothecin viability: -0.167
- viability with camptothecin: 85.7

LARS1 #1
- log2 vehicle/camptothecin viability: -0.152
- viability with camptothecin: 71.5

LARS1 #2
- log2 vehicle/camptothecin viability: -0.17
- viability with camptothecin: 73.9

LARS1 #3
- log2 vehicle/camptothecin viability: 0.303
- viability with camptothecin: 48.6

LARS1 #4
- log2 vehicle/camptothecin viability: -0.184
- viability with camptothecin: 79.2

NGF #1
- log2 vehicle/camptothecin viability: 0.0666
- viability with camptothecin: 99.3

NGF #2
- log2 vehicle/camptothecin viability: 0.243
- viability with camptothecin: 93.6

NGF #3
- log2 vehicle/camptothecin viability: -0.162
- viability with camptothecin: 70.7

NGF #4
- log2 vehicle/camptothecin viability: 0.114
- viability with camptothecin: 79.8

PTGIS #1
- log2 vehicle/camptothecin viability: -0.334
- viability with camptothecin: 111

PTGIS #2
- log2 vehicle/camptothecin viability: -0.357
- viability with camptothecin: 45

PTGIS #3
- log2 vehicle/camptothecin viability: 0.335
- viability with camptothecin: 63.3

PTGIS #4
- log2 vehicle/camptothecin viability: 0.794
- viability with camptothecin: 36.1

GSK3B #1
- log2 vehicle/camptothecin viability: -0.168
- viability with camptothecin: 109

GSK3B #2
- log2 vehicle/camptothecin viability: -0.337
- viability with camptothecin: 60.9

GSK3B #3
- log2 vehicle/camptothecin viability: 0.166
- viability with camptothecin: 98.9

GSK3B #4
- log2 vehicle/camptothecin viability: -0.183
- viability with camptothecin: 68.3

RELA #1
- log2 vehicle/camptothecin viability: -0.155
- viability with camptothecin: 86.2

RELA #2
- log2 vehicle/camptothecin viability: -0.437
- viability with camptothecin: 45.1

RELA #3
- log2 vehicle/camptothecin viability: -0.031
- viability with camptothecin: 107

RELA #4
- log2 vehicle/camptothecin viability: 0.695
- viability with camptothecin: 28.2

PTPRU #1
- log2 vehicle/camptothecin viability: -0.407
- viability with camptothecin: 72.3

PTPRU #2
- log2 vehicle/camptothecin viability: -0.309
- viability with camptothecin: 111

PTPRU #3
- log2 vehicle/camptothecin viability: -0.437
- viability with camptothecin: 64.9

PTPRU #4
- log2 vehicle/camptothecin viability: -0.206
- viability with camptothecin: 91.8

NF2 #1
- log2 vehicle/camptothecin viability: 0.147
- viability with camptothecin: 45.7

NF2 #2
- log2 vehicle/camptothecin viability: -1.17
- viability with camptothecin: 73.2

NF2 #3
- log2 vehicle/camptothecin viability: 0.166
- viability with camptothecin: 30.8

NF2 #4
- log2 vehicle/camptothecin viability: -0.167
- viability with camptothecin: 54

NF2 #5
- log2 vehicle/camptothecin viability: 0.288
- viability with camptothecin: 65.4

NF2 #6
- log2 vehicle/camptothecin viability: -0.0884
- viability with camptothecin: 84.1
